In the supplement of paper PMC8728848:
This is one part of the list.

Tests used:
Assay in all cases: glycan array binding signal (z-score within array); higher = stronger binding
Conditions in all cases: glycan notation: IUPAC condensed, linker removed
[1] = target: Gal(b1-4)GlcNAc(b1-2)Man(a1-3)[Gal(b1-4)GlcNAc(b1-2)Man(a1-6)]Man(b1-4)GlcNAc(b1-4)[Fuc(a1-6)]GlcNAc
Summary of the method: (§1)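 Glycan array binding is given as a within-array Z-score, which can be read as non-binding when negative. The arrays, 3228 of them, came from the Consortium for Functional Glycomics database and were retained only where the protein sequence was available. Z-scores were averaged across arrays of the same protein sequence at different concentrations or buffers and across linkers.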

[2] = target: Gal(b1-4)GlcNAc(b1-2)Man(a1-3)[Gal(b1-4)GlcNAc(b1-2)Man(a1-6)][Gal(b1-4)GlcNAc(b1-4)]Man(b1-4)GlcNAc(b1-4)[Fuc(a1-6)]GlcNAc
Summary of the method: as §1

[3] = target: Gal(b1-4)GlcNAc(b1-2)Man(a1-3)[Gal(b1-4)GlcNAc(b1-2)Man(a1-6)][GlcNAc(b1-4)]Man(b1-4)GlcNAc(b1-4)[Fuc(a1-6)]GlcNAc
Summary of the method: as §1

[4] = target: Gal(b1-4)GlcNAc(b1-2)Man(a1-3)[GlcNAc(b1-2)Man(a1-6)]Man(b1-4)GlcNAc(b1-4)GlcNAc
Summary of the method: as §1

[5] = target: Gal(b1-4)GlcNAc(b1-2)Man(a1-3)[GlcNAc(b1-4)][Gal(b1-4)GlcNAc(b1-2)Man(a1-6)]Man(b1-4)GlcNAc(b1-4)GlcNAc
Summary of the method: as §1

[6] = target: Gal(b1-4)GlcNAc(b1-2)Man(a1-3)[Man(a1-6)]Man(b1-4)GlcNAc(b1-4)GlcNAc
Summary of the method: as §1

[7] = target: Gal(b1-4)GlcNAc(b1-2)Man(a1-6)Man(b1-4)GlcNAc(b1-4)GlcNAc
Summary of the method: as §1

[8] = target: Gal(b1-4)GlcNAc(b1-2)Man(a1-6)[GlcNAc(b1-2)Man(a1-3)]Man(b1-4)GlcNAc(b1-4)GlcNAc
Summary of the method: as §1

[9] = target: Gal(b1-4)GlcNAc(b1-2)Man(a1-6)[Man(a1-3)]Man(b1-4)GlcNAc(b1-4)GlcNAc
Summary of the method: as §1

[10] = target: Gal(b1-4)GlcNAc(b1-2)[Gal(b1-4)GlcNAc(b1-4)]Man(a1-3)[Gal(b1-4)GlcNAc(b1-2)Man(a1-6)]Man(b1-4)GlcNAc(b1-4)GlcNAc
Summary of the method: as §1

[11] = target: Gal(b1-4)GlcNAc(b1-2)[Gal(b1-4)GlcNAc(b1-4)]Man(a1-3)[Gal(b1-4)GlcNAc(b1-2)[Gal(b1-4)GlcNAc(b1-6)]Man(a1-6)]Man(b1-4)GlcNAc(b1-4)GlcNAc
Summary of the method: as §1

[12] = target: Gal(b1-4)GlcNAc(b1-2)[Gal(b1-4)GlcNAc(b1-4)]Man(a1-3)[GlcNAc(b1-4)][Gal(b1-4)GlcNAc(b1-2)Man(a1-6)]Man(b1-4)GlcNAc(b1-4)GlcNAc
Summary of the method: as §1

[13] = target: Gal(b1-4)GlcNAc(b1-2)[Gal(b1-4)GlcNAc(b1-4)]Man(a1-3)[GlcNAc(b1-4)][Gal(b1-4)GlcNAc(b1-2)[Gal(b1-4)GlcNAc(b1-6)]Man(a1-6)]Man(b1-4)GlcNAc(b1-4)GlcNAc
Summary of the method: as §1

[14] = target: Gal(b1-4)GlcNAc(b1-2)[Gal(b1-4)GlcNAc(b1-6)]Man(a1-6)[Gal(b1-4)GlcNAc(b1-2)Man(a1-3)]Man(b1-4)GlcNAc(b1-4)GlcNAc
Summary of the method: as §1

[15] = target: Gal(b1-4)GlcNAc(b1-2)[Gal(b1-4)GlcNAc(b1-6)]Man(a1-6)[Gal(b1-4)GlcNAc(b1-2)Man(a1-3)]Man(b1-4)GlcNAc(b1-4)[Fuc(a1-6)]GlcNAc
Summary of the method: as §1

[16] = target: Gal(b1-4)GlcNAc(b1-2)[Gal(b1-4)GlcNAc(b1-6)]Man(a1-6)[GlcNAc(b1-4)][Gal(b1-4)GlcNAc(b1-2)Man(a1-3)]Man(b1-4)GlcNAc(b1-4)GlcNAc
Summary of the method: as §1

[17] = target: Gal(b1-4)GlcNAc(b1-2)[Gal(b1-4)GlcNAc(b1-6)]Man(a1-6)[GlcNAc(b1-4)][Gal(b1-4)GlcNAc(b1-2)[Gal(b1-4)GlcNAc(b1-4)]Man(a1-3)]Man(b1-4)GlcNAc(b1-4)[Fuc(a1-6)]GlcNAc
Summary of the method: as §1

[18] = target: Gal(b1-4)GlcNAc(b1-3)Gal(b1-3)GalNAc
Summary of the method: as §1

[19] = target: Gal(b1-4)GlcNAc(b1-3)Gal(b1-3)GlcNAc
Summary of the method: as §1

B1: Wzz (Escherichia coli) (protein)
chain: MRTWKFPSVRVMMRVENNNVSGQNHDPEQIDLIDLLVQLWRGKMTIIISVIVAIVLAIGYLAVAKEKWTSTAIITQPDVGQIAGYNNAMNVIYGQAAPKVSDLQETLIGRFSSAFSALAETLDNQEEPEKLTIEPSVKNQQLPLTVSYVGQTAEGAQMKLAQYIQQVDDKVNQELEKDLKDNIALGRKNLQDSLRTQEVVAQEQKDLRIRQIQEALQYANQAQVTKPQIQQTGEDITQDTLFLLGSEALESMIKHEATRPLVFSSNYYQTRQNLLDIDNLDVDKLDIHAYLYVMKPTLPIRRDSPKKAITLILAVLLGGMVGAGIVLGRNALRNYNAK
glycan array binding signal (z-score) [1]: 0.201
glycan array binding signal (z-score) [2]: -0.765
glycan array binding signal (z-score) [3]: -0.511
glycan array binding signal (z-score) [4]: -0.957
glycan array binding signal (z-score) [5]: 0.282
glycan array binding signal (z-score) [6]: 0.051
glycan array binding signal (z-score) [7]: -0.26
glycan array binding signal (z-score) [8]: -0.334
glycan array binding signal (z-score) [9]: 0.951
glycan array binding signal (z-score) [10]: 0.041
glycan array binding signal (z-score) [11]: -0.395
glycan array binding signal (z-score) [12]: 0.313
glycan array binding signal (z-score) [13]: -0.062
glycan array binding signal (z-score) [14]: -0.211
glycan array binding signal (z-score) [15]: -0.247
glycan array binding signal (z-score) [16]: 0.477
glycan array binding signal (z-score) [17]: -0.749
glycan array binding signal (z-score) [18]: -0.721
glycan array binding signal (z-score) [19]: -0.29
